# Assay results reported in article PMC12535091.
# These are yes or no findings as the source states them, for the method shown. In cells and extracts the contact can be indirect. Some entries that bind do so weakly or less than the wild type.
# T1: mouse β2-glycoprotein I (β2GPI, Apolipoprotein H) (mouse (endogenous in C57BL/6 plasma)) (UniProt Q01339)
# T1 sequence: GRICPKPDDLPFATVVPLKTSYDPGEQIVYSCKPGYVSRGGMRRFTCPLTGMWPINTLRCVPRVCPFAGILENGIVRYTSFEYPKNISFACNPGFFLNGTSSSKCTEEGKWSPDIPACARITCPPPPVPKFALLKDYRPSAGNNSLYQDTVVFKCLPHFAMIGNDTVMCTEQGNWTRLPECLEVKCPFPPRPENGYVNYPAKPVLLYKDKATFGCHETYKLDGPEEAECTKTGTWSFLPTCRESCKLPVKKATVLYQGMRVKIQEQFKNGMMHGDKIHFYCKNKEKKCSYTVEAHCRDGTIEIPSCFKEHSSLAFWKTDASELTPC
# Molecular target: T1, mouse β2-glycoprotein I (β2GPI, Apolipoprotein H) (mouse (endogenous in C57BL/6 plasma))
# Experiment: co-IP; mouse plasma (female WT; β2GPI KO as control) diluted 1:5 in PBS, pre-cleared with protein G-Sepharose; sheep anti-mouse β2GPI antibody 10 µg/ml, 14-16 h at 4 °C; blot for Apo E and β2GPI
binder,measurement,value
"mouse Apolipoprotein E (protein, UniProt P08226 19-311) EGEPEVTDQLEWQSNQPWEQALNRFWDYLRWVQTLSDQVQEELQSSQVTQELTALMEDTMTEVKAYKKELEEQLGPVAEETRARLGKEVQAAQARLGADMEDLRNRLGQYRNEVHTMLGQSTEEIRARLSTHLRKMRKRLMRDAEDLQKRLAVYKAGAREGAERGVSAIRERLGPLVEQGRQRTANLGAGAAQPLRDRAQAFGDRIRGRLEEVGNQARDRLEEVREHMEEVRSKMEEQTQQIRLQAEIFQARLKGWFEPIVEDMHRQWANLMEKIQASVATNPIITPVAQENQ",binding,binds
